Assay results published in the supplement of paper PMC10849652.
The other results are listed elsewhere or left out.

Amino acid sequences for entries named in this document (tags omitted). A change or cut given only in a name is not applied to a line headed by its entry.
UniProt Q7Z4W1: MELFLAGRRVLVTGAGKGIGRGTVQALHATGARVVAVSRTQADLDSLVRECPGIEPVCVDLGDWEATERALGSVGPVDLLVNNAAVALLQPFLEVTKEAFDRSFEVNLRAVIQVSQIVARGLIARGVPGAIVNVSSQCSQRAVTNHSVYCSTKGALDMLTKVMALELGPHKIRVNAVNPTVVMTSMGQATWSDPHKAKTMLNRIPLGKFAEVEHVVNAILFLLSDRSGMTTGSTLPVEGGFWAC
UniProt O00399, whole entry, looked up: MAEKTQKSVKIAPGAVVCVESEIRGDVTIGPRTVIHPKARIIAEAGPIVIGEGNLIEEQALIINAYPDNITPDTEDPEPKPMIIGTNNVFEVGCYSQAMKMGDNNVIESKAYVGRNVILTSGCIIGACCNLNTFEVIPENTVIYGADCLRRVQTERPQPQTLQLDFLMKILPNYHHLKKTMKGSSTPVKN
UniProt P61803: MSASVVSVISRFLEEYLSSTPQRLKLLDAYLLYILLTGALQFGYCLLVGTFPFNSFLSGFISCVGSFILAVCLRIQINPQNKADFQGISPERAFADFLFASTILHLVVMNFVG
UniProt Q9NVP1: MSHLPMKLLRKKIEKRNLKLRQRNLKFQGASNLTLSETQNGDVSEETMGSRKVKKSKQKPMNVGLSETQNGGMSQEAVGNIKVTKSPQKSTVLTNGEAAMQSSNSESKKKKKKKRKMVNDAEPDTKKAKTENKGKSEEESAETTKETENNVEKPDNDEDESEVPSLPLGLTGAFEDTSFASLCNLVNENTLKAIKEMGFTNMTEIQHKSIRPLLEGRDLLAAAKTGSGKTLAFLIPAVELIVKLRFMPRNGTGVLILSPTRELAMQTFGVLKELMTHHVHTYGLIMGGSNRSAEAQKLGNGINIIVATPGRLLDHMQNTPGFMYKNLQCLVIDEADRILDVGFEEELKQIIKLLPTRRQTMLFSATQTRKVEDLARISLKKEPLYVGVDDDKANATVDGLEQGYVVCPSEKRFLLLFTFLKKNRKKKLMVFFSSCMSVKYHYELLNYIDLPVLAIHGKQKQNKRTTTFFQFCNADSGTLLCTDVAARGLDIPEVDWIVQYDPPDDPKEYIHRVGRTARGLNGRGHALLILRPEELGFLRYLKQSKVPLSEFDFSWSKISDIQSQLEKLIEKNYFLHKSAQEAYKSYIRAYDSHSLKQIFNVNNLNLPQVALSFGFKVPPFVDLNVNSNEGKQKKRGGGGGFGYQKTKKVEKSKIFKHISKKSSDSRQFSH
UniProt Q13561, whole entry, looked up: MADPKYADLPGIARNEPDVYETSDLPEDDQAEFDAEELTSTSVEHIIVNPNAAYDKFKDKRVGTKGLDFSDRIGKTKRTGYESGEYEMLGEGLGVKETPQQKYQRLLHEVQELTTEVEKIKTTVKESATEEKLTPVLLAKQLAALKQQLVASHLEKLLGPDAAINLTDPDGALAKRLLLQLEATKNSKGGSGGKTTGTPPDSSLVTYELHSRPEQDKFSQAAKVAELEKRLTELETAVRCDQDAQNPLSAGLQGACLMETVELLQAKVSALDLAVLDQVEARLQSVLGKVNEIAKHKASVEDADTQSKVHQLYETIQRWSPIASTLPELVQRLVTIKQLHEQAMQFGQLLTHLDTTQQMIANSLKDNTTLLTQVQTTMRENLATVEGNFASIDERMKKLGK
UniProt Q9BUQ8: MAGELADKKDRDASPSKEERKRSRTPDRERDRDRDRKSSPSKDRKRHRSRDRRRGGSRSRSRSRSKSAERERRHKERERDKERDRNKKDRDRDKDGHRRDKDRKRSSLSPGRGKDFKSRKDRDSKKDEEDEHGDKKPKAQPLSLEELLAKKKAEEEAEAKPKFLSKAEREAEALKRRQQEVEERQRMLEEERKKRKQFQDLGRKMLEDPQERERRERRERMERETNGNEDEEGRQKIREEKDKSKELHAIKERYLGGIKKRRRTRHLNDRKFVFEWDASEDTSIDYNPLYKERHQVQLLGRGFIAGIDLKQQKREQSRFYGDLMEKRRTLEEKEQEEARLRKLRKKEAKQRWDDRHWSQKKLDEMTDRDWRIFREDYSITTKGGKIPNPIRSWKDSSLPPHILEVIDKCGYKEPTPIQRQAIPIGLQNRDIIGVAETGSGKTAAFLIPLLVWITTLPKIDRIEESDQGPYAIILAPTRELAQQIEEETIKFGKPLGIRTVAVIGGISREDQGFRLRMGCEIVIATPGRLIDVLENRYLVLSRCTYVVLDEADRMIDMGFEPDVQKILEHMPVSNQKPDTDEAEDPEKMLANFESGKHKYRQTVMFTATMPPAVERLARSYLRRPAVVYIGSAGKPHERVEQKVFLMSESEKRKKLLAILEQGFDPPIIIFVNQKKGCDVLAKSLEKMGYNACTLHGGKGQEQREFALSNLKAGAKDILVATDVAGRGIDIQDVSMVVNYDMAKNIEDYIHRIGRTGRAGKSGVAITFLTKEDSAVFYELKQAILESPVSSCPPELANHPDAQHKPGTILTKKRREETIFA
UniProt Q8NHQ9: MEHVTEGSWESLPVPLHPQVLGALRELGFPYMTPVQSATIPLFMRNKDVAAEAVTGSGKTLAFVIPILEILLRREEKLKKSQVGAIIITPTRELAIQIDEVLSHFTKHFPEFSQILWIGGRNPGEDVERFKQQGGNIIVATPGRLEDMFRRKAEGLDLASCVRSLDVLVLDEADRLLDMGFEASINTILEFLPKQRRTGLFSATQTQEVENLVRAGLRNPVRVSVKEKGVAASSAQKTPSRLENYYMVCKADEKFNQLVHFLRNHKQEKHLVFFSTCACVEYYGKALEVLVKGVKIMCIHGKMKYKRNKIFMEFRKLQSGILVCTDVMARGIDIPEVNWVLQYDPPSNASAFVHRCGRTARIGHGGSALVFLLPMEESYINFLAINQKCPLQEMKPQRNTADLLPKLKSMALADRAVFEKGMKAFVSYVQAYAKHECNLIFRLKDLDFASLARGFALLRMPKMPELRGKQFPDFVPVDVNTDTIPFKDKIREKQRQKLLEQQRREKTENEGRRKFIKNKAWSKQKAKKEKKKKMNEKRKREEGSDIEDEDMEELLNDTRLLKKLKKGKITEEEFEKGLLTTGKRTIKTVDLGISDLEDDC
UniProt Q9Y6V7: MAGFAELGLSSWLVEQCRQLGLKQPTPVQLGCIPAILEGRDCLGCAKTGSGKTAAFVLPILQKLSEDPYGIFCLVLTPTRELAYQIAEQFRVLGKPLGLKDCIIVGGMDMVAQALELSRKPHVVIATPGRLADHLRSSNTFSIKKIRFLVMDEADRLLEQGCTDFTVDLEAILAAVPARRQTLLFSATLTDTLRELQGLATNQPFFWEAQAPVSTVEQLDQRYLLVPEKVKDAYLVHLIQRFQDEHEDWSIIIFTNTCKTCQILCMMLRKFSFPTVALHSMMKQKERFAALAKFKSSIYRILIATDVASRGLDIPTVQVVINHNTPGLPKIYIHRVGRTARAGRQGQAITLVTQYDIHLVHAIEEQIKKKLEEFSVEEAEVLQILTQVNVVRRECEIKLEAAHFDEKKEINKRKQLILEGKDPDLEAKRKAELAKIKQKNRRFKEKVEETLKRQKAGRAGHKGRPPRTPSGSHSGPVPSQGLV
UniProt P26196: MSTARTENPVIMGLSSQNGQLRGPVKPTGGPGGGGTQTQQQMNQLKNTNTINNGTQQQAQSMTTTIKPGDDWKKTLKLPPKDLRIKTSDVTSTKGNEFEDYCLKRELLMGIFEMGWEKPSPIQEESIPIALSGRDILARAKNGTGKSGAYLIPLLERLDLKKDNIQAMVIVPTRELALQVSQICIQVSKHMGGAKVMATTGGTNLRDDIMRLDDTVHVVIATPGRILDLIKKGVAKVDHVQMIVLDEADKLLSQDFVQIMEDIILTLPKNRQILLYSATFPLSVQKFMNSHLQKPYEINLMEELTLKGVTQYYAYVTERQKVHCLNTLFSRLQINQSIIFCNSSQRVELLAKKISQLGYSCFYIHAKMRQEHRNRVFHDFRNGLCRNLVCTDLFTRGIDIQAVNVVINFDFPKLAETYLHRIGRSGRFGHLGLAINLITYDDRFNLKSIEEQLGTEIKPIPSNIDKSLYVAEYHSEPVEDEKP
UniProt Q9NUU7: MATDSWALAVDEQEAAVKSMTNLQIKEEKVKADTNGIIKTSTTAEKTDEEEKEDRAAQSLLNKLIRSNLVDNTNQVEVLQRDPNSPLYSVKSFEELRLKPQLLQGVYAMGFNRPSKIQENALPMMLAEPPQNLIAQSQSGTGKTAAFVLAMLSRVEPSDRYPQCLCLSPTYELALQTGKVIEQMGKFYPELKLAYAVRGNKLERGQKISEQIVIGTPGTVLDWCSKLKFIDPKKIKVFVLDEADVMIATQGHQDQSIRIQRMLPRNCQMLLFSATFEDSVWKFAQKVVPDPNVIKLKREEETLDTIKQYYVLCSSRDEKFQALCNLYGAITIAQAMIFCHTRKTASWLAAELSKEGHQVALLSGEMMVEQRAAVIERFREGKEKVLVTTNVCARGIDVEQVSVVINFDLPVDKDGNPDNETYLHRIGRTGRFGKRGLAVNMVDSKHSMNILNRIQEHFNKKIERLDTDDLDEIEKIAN
UniProt Q9Y2R4: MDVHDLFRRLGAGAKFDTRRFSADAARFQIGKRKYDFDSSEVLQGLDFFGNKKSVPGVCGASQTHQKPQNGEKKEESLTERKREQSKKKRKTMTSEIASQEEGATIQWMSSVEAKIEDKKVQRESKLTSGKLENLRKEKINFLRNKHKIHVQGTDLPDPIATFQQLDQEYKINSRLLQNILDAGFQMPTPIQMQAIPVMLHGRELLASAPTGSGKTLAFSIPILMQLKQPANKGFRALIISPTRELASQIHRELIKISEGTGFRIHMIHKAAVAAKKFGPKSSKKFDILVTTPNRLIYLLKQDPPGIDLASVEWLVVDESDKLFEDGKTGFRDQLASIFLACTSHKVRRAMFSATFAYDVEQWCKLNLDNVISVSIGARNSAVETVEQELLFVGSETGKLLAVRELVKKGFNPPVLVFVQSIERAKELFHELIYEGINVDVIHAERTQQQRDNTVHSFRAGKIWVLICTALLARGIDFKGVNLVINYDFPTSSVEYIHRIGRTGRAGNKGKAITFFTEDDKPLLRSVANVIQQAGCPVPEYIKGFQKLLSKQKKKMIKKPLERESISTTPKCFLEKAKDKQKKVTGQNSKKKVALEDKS
UniProt Q16643: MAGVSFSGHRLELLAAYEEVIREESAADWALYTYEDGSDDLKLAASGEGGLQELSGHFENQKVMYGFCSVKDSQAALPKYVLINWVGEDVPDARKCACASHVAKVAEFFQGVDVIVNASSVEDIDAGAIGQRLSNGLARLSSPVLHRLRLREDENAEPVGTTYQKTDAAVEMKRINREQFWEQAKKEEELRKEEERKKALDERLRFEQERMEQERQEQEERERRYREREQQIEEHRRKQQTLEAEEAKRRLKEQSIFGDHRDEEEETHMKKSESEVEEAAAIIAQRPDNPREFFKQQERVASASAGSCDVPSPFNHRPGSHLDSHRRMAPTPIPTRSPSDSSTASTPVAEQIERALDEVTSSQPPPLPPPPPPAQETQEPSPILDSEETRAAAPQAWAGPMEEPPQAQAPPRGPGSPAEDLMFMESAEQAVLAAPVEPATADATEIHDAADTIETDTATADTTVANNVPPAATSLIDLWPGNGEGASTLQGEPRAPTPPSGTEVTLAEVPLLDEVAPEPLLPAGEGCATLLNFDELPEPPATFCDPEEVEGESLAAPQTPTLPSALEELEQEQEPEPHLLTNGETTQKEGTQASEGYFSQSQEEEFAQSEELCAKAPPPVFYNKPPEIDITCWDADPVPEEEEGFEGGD
UniProt O43293: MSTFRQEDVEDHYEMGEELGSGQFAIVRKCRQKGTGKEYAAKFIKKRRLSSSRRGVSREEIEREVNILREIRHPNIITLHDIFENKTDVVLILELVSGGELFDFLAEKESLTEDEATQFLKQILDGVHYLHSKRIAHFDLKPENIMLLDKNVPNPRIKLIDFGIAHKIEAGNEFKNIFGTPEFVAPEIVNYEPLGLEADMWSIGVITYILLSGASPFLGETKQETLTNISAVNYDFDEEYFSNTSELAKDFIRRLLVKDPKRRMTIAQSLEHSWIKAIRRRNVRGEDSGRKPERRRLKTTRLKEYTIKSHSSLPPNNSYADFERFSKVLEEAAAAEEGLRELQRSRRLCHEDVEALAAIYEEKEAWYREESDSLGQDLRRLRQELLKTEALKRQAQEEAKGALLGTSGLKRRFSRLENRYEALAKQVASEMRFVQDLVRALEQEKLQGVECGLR
UniProt Q8WVC6: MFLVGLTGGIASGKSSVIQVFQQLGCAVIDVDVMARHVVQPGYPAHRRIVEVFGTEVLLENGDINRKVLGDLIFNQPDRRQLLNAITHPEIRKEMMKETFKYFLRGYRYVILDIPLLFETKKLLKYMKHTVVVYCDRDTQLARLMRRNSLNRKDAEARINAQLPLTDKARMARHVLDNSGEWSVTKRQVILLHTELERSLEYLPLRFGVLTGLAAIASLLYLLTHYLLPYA

Assays:
Experiment in all cases: log2 fold change, soluble protein after heating vs DMSO (PISA); higher = thermal stabilisation; K562 lysate, 10 uM; active = over 0.2 and 3.5 SD of the protein, either way, in both replicates (recomputed)
erlotinib = compound: C#Cc1cccc(Nc2ncnc3cc(OCCOC)c(OCCOC)cc23)c1 [erlotinib]
Method in brief: (§1)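 Quantification was by TMTpro 16plex LC-MS/MS with equalised channel sums, applied to the supernatant after 21,000xg for 90 min. Samples were crude K562 extract at 1 mg/mL protein in PBS pH 7.4 with 1 mM MgCl2, treated with 10 μM compound for 30 min, heated for 3 min across 48°C-58°C, pooled and brought to 0.5% NP-40 at 4°C. Values are log-two fold changes in thermal stability relative to solvent controls, from duplicates.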

[1] = compound: C/C(=N\NC(=O)C1=CC(=CC=C1)S(=O)(=O)N2CCOCC2)/C3=C(C=CC(=C3)Cl)O
Method in brief: as §1

[2] = compound: C1=CC(=CC=C1C2=NC3=C(N2)C=C(C=C3)C(=O)N)OC4=CC=C(C=C4)Cl
Method in brief: as §1

[3] = compound: C1=CC2=C(C=CC(=C2)/C=C\3/C(=O)NC(=NCC4=CC=CS4)S3)N=C1
Method in brief: as §1

[4] = compound: C1=CC2=NC=CN=C2C=C1/C=C/3\C(=O)NC(=O)S3
Method in brief: as §1

[5] = compound: C1=CC=C(C=C1)C2=NC(=C(N2)C3=CC=NC=C3)C4=CC(=C(C=C4)Cl)O
Method in brief: as §1

[6] = compound: C1=CC=C2C(=C1)C3=NNC4=CC=CC(=C43)C2=O
Method in brief: as §1

[7] = compound: C1CCN(C1)C(=O)NC2=CC=CC(=C2)NC3=NC=C(C(=N3)NCCC4=CN=CN4)Br
Method in brief: as §1

[8] = compound: C1CN(CCC1(CC2=CC=C(C=C2)Cl)N)C3=NC=NC4=C3C=CN4
Method in brief: as §1

IRAK-1-4 Inhibitor I = compound: C1COCCN1CCN2C3=CC=CC=C3N=C2NC(=O)C4=CC(=CC=C4)[N+](=O)[O-] [IRAK-1-4 Inhibitor I]
Method in brief: as §1

Measured: log2 fold change

DCXR (UniProt Q7Z4W1)
inactive: erlotinib -0.022 | [1] 0.039 | [2] 0.01 | [3] -0.004 | [4] 0.001 | [5] -0.021 | [6] 0 | [7] -0.019 | [8] -0.001 | IRAK-1-4 Inhibitor I 0.011

DENND1C (UniProt Q8IV53)
inactive: erlotinib 0.018 | [1] 0.118 | [2] 0.063 | [3] 0.031 | [4] 0.003 | [5] -0.051 | [6] -0.204 | IRAK-1-4 Inhibitor I 0.089

DCTN6 (UniProt O00399)
inactive: erlotinib -0.05 | [1] 0.041 | [2] 0.018 | [3] -0.003 | [4] 0.049 | [5] -0.028 | [6] -0.01 | [7] -0.014 | [8] 0.009 | IRAK-1-4 Inhibitor I -0.008

DAD1 (UniProt P61803)
inactive: erlotinib -0.126 | [1] -0.244 | [2] 0.063 | [3] -0.266 | [4] -0.122 | [5] 0.012 | [6] 0.246 | [7] -0.055 | [8] -0.098 | IRAK-1-4 Inhibitor I -0.025

DENND10 (UniProt Q8TCE6)
inactive: erlotinib 0.202 | [1] 0 | [2] -0.039 | [3] -0.026 | [4] -0.02 | [5] 0.039 | [6] -0.031 | [7] -0.044 | [8] 0.014 | IRAK-1-4 Inhibitor I 0.039

DEPDC5 (UniProt O75140)
inactive: erlotinib 0.252 | [1] -0.048 | [2] 0.081 | [3] 0.084 | [4] 0.013 | [6] -0.079

DDX18 (UniProt Q9NVP1)
inactive: erlotinib -0.015 | [1] -0.033 | [2] -0.031 | [3] 0.005 | [4] -0.029 | [5] 0.025 | [6] 0.007 | [7] 0.004 | [8] -0.014 | IRAK-1-4 Inhibitor I -0.052

DENND1B (UniProt Q6P3S1)
inactive: erlotinib -0.08 | [1] 0.153 | [2] -0.13 | [3] 0.04 | [4] 0.19 | [5] 0.019 | [6] 0.007 | IRAK-1-4 Inhibitor I 0.014

DDX39A (UniProt O00148)
inactive: erlotinib 0.023 | [1] -0.095 | [2] -0.045 | [3] -0.001 | [4] -0.003 | [5] 0.008 | [6] -0.026 | [7] -0.02 | [8] 0.009 | IRAK-1-4 Inhibitor I 0.014

Two entries drawn at random from those above, as already listed:
DCXR (UniProt Q7Z4W1)
inactive: erlotinib -0.022 | [1] 0.039 | [2] 0.01 | [3] -0.004 | [4] 0.001 | [5] -0.021 | [6] 0 | [7] -0.019 | [8] -0.001 | IRAK-1-4 Inhibitor I 0.011

DENND1C (UniProt Q8IV53)
inactive: erlotinib 0.018 | [1] 0.118 | [2] 0.063 | [3] 0.031 | [4] 0.003 | [5] -0.051 | [6] -0.204 | IRAK-1-4 Inhibitor I 0.089

The list continues:

DCTN2 isoform 3 (UniProt Q13561)
inactive: erlotinib -0.01 | [1] -0.002 | [2] -0.015 | [3] 0.004 | [4] -0.006 | [5] -0.006 | [6] 0.026 | [7] 0.011 | [8] -0.001 | IRAK-1-4 Inhibitor I -0.012

DDHD2 (UniProt O94830)
inactive: erlotinib 0.017 | [1] -0.199 | [2] 0.017 | [3] 0.024 | [4] -0.001 | [5] -0.005 | [6] -0.018 | [7] 0.003 | [8] 0.025 | IRAK-1-4 Inhibitor I 0.012

CYP2S1 isoform 2 (UniProt Q96SQ9)
inactive: erlotinib -0.026 | [1] -0.291 | [2] -0.018 | [3] -0.096 | [5] 0.07 | [6] -0.123 | [7] -0.198 | [8] 0.08 | IRAK-1-4 Inhibitor I -0.044

DDX23 (UniProt Q9BUQ8)
inactive: erlotinib 0.011 | [1] -0.043 | [2] 0.002 | [3] 0.004 | [4] 0.002 | [5] -0.012 | [6] -0.005 | [7] 0.004 | [8] 0.028 | IRAK-1-4 Inhibitor I -0.042

DFFA isoform 2 (UniProt O00273)
inactive: erlotinib 0.097 | [1] 0.061 | [2] -0.06 | [3] -0.197 | [4] -0.204 | [5] 0.094 | [6] 0.058 | IRAK-1-4 Inhibitor I 0.025

DDX55 (UniProt Q8NHQ9)
inactive: erlotinib -0.003 | [1] 0.377 | [2] -0.052 | [3] -0.003 | [4] -0.008 | [5] 0.011 | [6] -0.012 | [7] -0.019 | [8] -0.002 | IRAK-1-4 Inhibitor I -0.045

DEF8 (UniProt Q6ZN54)
inactive: erlotinib -0.011 | [1] 0.058 | [2] 0.103 | [3] 0.004 | [4] 0.154 | [6] -0.05 | [7] -0.063 | [8] -0.055

D2HGDH (UniProt Q8N465)
inactive: erlotinib 0.034 | [1] 0.03 | [2] 0.061 | [3] -0.016 | [4] -0.009 | [5] 0.021 | [6] -0.079 | [7] -0.044 | [8] 0.071 | IRAK-1-4 Inhibitor I 0.06

DDX49 (UniProt Q9Y6V7)
inactive: erlotinib 0.011 | [1] -0.002 | [2] 0.056 | [3] 0.029 | [4] -0.05 | [5] 0.035 | [6] 0.014 | [7] 0.039 | [8] -0.019 | IRAK-1-4 Inhibitor I 0.01

DDX41 (UniProt Q9UJV9)
inactive: erlotinib 0.022 | [1] -0.006 | [2] 0.03 | [3] -0.009 | [4] 0.006 | [5] 0.006 | [6] -0.04 | [7] -0.031 | [8] 0.045 | IRAK-1-4 Inhibitor I -0.079

DDX27 (UniProt Q96GQ7)
inactive: erlotinib -0.034 | [1] -0.017 | [2] -0.024 | [3] 0.003 | [4] -0.004 | [5] -0.009 | [6] -0.049 | [7] 0 | [8] -0.003 | IRAK-1-4 Inhibitor I 0.005

DDX6 (UniProt P26196)
inactive: erlotinib -0.03 | [1] -0.012 | [2] 0.032 | [3] 0.007 | [4] -0.007 | [5] -0.009 | [6] -0.009 | [7] -0.038 | [8] 0.025 | IRAK-1-4 Inhibitor I 0.011

DCP1B (UniProt Q8IZD4)
inactive: erlotinib 0.095 | [1] 0.039 | [2] -0.092 | [3] -0.025 | [4] -0.341 | [6] 0.146 | [7] 0.054 | [8] 0.107

DDX19A (UniProt Q9NUU7)
inactive: erlotinib 0 | [1] -0.016 | [2] 0.022 | [3] 0.006 | [4] -0.011 | [5] -0.008 | [6] -0.016 | [7] -0.056 | [8] 0.011 | IRAK-1-4 Inhibitor I -0.027

DCTN3 (UniProt O75935)
inactive: erlotinib -0.007 | [1] 0.034 | [2] -0.048 | [3] -0.001 | [4] 0.014 | [5] -0.009 | [6] -0.042 | [7] -0.001 | [8] 0.008 | IRAK-1-4 Inhibitor I -0.023

DDX1 (UniProt Q92499)
inactive: erlotinib 0.022 | [1] 0.038 | [2] 0.003 | [3] 0 | [4] 0.01 | [5] 0.02 | [6] -0.025 | [7] -0.007 | [8] -0.011 | IRAK-1-4 Inhibitor I 0.002

DDX52 (UniProt Q9Y2R4)
inactive: erlotinib 0.046 | [1] 0.011 | [2] 0.021 | [3] 0.022 | [4] -0.021 | [5] -0.018 | [6] 0.008 | [7] -0.033 | [8] 0.032 | IRAK-1-4 Inhibitor I 0.089

DBN1 (UniProt Q16643)
inactive: erlotinib 0.004 | [1] -0.03 | [2] 0.037 | [3] -0.027 | [4] -0.006 | [5] 0.031 | [6] -0.02 | [7] 0.022 | [8] 0.013 | IRAK-1-4 Inhibitor I 0.026

CYTH2 (UniProt Q99418)
inactive: erlotinib 0.016 | [2] 0.057 | [4] 0.089 | [5] 0.026 | [7] 0.02 | [8] 0.033 | IRAK-1-4 Inhibitor I -0.073

DAPK3 (UniProt O43293)
inactive: [1] -0.048 | [3] 0.183 | [6] 0.202

DBNL (UniProt Q9UJU6)
inactive: erlotinib 0.056 | [2] 0.075 | [4] 0.022

DCTN1 isoform 4 (UniProt Q14203)
inactive: erlotinib -0.021 | [1] -0.166 | [2] 0.065 | [3] -0.109 | [5] 0.098 | [6] 0.126 | [7] -0.141 | [8] 0 | IRAK-1-4 Inhibitor I 0.02

DCAKD (UniProt Q8WVC6)
inactive: [1] -0.177 | [3] -0.212 | [5] -0.111 | [6] 0.017 | IRAK-1-4 Inhibitor I 0.013
